Data from patent US20110053835A1, “ANTIMICROBIAL PEPTIDES DERIVED FROM CAP18” (OctoPlus Sciences B.V., priority 2004, published 2011).
At least one peptide structure holds a part that was inferred or is arguable (an end, a ring closure or a residue).

Experiments:
[1] = system: neutrophils isolated from peripheral blood; experiment: Neutrophil chemotaxis (modified Boyden chamber); assay type: cell-based; conditions: percentage neutrophils on the membrane compared to positive control 10^−8 M FMLP; 90 minutes at 37° C.
Experimental: Neutrophils chemotaxis was measured with neutrophils isolated from peripheral blood using Percoll density centrifugation (density: 1.082 g/ml). The cells were resuspended at a concentration of 2.5×10^6 cells/ml in chemotaxis medium (20 mM N-2-hydroxyethylpiperazine-N′-2-ethanesulfonic acid (HEPES buffer) HEPES, 132 mM NaCl, 6 mM KCl, 1.2 mM KH2PO4, 1 mM MgSO4, 5.5 mM glucose, 0.1 mM CaCl2 and 0.5% (wt/vol) human serum albumm [Central Laboratory of the Netherlands Red Cross Blood Transfusion Service (CLB), Amsterdam, The Netherlands] diluted 1:1 with serum-free RPMI. The chemotactic activity of the compounds was assessed using a modified Boyden Camber technique. Briefly, 26 μl stimuli diluted in HEPES buffer was added to the wells of the lower compartment, and 50 μl of neutrophil suspension (2.5×10^6 cells/ml) was added to the upper compartment. The compartments were separated by two filters: a lower filter with a pore size of 0.45 μm (Millipore Products, Bedford, Mass.) and an upper filter with a pore size of 8 μm (Sartorius Filter, San Francisco, Calif.). […] To determine neutrophil chemotactic activity, neutrophils were counted in six random high-power fields (×400), and the percentage neutrophils on the membrane as compared to the positive control (10^−8 M, N-formylmethionyl-leucyl-phenylalanine (FMLP, Sigma) was calculated.

[2] = system: Candida albicans ATCC 10231
Experimental: The in vitro antibacterial and antifungal activity of P60.4-Ac and LL-37 were determined as the minimum inhibitory concentrations (MIC) by a microdilution susceptibility test in 96-well microtiter plates, according to a modified version of R. Hancock's “Modified MIC method for cationic antimicrobial peptides” [13]. The antibacterial activity was tested on the reference strains Escherichia coli ATCC 8739, Pseudmonas aeruginosa ATCC 9027. The antifungal activity was evaluated on Candida albicans ATCC 10231 and Aspergillus niger ATCC 14406. The antimicrobial activity assay was conducted with different concentrations of P60.4Ac and LL-37 to compare their effects on the bacterial or fungal growth. Antibacterial activity was examined using log-phase cultured bacteria in Trypticase Soy Broth at 37° C. The cultures were diluted with 10 mM Sodium Phosphate buffer pH 7.4 to give approximately 5.0×10^6 CFU/ml. 10 μl of the diluted test strain was transferred to a 96-well plate and 100 μl of the different peptide concentrations was added to each well. The plates were incubated at 37° C. for 24 hours and are then scored for growth by visual inspection on a light box. They are then returned for incubation for a further 24 hours after which time they are re-evaluated for growth. The yeast strain C. albicans was prepared as described above. […]

[3] = system: Pseudomonas putida PCL1445 biofilms; experiment: Disruption of formed biofilms, PVC biofilm assay (OD595); assay type: cell-based; conditions: biofilms formed over 7 hours, 18 hours of incubation with peptide; compared with DMSO and M63
[4] = system: Pseudomonas putida PCL1445 biofilm formation; conditions: 0.9 μM, 10 hours, compared with buffer solution without the peptide

## Ac-IGKEFKRIVERIKRFLRELVRPLR-NH2 [Compound P60.4Ac]
[1]
  Chemotaxis (%): 0 ± 0%
[2]; C. albicans ATCC10231, 48 h
  possible fungicidal concentration: 18 µM
[2]; incubation time not given
  MIC against C. albicans: 6 µM
[3]
  disruption of formed biofilms (OD595): disrupted the biofilms substantially, depending on its concentration
[4]
  decrease of biofilm formation: approx. 50%
